pIC50: −log10 of the molar value. The match of structure and compound is tentative.
Columns and labels:
Human ASK1 [1] = target: T1, Human ASK1 (Homo sapiens, UniProt Q99683); experiment: ASK1 Biochemical Assay (HTRF KinEASE-STK S3); conditions: read-out: Biochemical Assay IC50; ATP 100 μM
Human ASK1 [2] = target: T1, Human ASK1; experiment: ASK1 Cell Based Assay (phospho p38 read out in hASK1 transfected HEK293T-AP1 cells); conditions: 1 mM hydrogen peroxide

Protein sequences, listed by entry. Tags and fused reporters are not part of them. Residues count along the entry.
UniProt Q99683, 654-971 limits assumed: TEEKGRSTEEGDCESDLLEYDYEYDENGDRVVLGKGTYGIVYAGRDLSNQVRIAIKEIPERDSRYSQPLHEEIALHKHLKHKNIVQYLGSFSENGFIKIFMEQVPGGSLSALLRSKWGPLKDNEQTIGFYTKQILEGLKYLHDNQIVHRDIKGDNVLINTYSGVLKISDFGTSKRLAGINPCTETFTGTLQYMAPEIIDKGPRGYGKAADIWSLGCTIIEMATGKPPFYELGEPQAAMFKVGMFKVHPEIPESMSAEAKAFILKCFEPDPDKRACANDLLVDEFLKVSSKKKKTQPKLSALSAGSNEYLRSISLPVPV
UniProt Q99683, whole entry: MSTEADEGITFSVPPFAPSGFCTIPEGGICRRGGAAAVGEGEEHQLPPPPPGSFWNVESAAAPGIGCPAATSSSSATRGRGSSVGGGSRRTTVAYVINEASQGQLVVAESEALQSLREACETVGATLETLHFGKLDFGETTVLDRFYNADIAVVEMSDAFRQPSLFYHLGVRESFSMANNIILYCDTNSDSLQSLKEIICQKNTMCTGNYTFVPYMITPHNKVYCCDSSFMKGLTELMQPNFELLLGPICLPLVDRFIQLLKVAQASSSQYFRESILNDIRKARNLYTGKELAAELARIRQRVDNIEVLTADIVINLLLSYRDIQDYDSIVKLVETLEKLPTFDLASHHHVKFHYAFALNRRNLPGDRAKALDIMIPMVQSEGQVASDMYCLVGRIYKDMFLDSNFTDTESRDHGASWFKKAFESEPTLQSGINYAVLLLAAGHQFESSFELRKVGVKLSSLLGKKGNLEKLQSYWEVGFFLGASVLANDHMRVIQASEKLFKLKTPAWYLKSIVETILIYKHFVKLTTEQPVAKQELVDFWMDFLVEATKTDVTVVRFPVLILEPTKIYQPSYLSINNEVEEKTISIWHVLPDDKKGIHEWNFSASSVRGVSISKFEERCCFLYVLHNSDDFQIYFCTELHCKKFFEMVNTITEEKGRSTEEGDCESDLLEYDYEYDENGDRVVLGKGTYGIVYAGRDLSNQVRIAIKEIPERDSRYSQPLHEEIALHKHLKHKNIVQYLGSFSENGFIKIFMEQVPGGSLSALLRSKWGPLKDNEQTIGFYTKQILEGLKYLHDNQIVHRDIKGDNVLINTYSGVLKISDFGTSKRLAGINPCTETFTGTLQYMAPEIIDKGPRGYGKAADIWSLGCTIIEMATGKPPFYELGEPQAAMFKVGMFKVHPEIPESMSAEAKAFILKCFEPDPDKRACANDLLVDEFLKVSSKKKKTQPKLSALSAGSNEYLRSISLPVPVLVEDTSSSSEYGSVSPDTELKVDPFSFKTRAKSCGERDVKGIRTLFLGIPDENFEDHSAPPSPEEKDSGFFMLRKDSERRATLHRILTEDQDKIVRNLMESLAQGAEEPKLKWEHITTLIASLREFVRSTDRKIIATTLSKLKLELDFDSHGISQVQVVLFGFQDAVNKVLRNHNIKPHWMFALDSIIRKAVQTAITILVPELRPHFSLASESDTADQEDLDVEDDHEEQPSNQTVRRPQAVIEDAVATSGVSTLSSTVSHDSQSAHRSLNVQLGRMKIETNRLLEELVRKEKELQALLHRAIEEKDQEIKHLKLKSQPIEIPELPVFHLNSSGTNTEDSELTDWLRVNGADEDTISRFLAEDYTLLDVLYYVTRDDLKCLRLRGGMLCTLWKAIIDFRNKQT

| SMILES | pIC50 (Human ASK1 [1]) | pIC50 (Human ASK1 [2]) |
| --- | --- | --- |
| COCCS(=O)(=O)c1ccc(N2CCN(c3cccc(-c4nncn4C(C)C)n3)C2=O)cn1 | > 7.00 | < 6.00 |
| COc1cc(N2CCN(c3cccc(-c4nncn4C(C)C)n3)C2=O)ccc1S(C)(=O)=O | < 7.00 | – |
| CS(=O)(=O)c1ccc(N2CCN(c3cccc(-c4nncn4C4CC4)n3)C2=O)cc1 | > 7.00 | – |

Reference: patent US20220332700A1, “NOVEL APOPTOSIS SIGNAL-REGULATING KINASE 1 INHIBITORS” (MANKIND PHARMA LTD, priority 2019, published 2022)
